Experimental data as given in patent publication US7514561B2, “Pesticidal 5-(acylamino) pyrazole derivatives” (Merial Limited, priority 2003, dated 2009).
Some results were stated once for a whole list of compounds, not compound by compound.

Legend:
[1] = tested on: Diabrotica undecimpunctata (southern corn rootworm); assay: Method B: Diabrotica undecimpunctata (southern corn rootworm) screen; format: in vivo; settings: test concentration of 10 ppm; assessed 6 days after application
[2] = tested on: Ctenocephalides felis (Cat flea); assay: Method A: screening method to test systemicity against Ctenocephalides felis (artificial dog test, treated bovine blood); format: in vivo; settings: test concentration of 5 ppm or less in bovine blood; adults; assessment at 24 and 48 hours after application

Structure (SMILES) | control of Diabrotica undecimpunctata (dead eggs and/or larvae vs untreated control) [1] | control of Ctenocephalides felis [2]
CN(C(=O)CCC(=O)O)c1c([S+]([O-])C(F)(F)F)c(C#N)nn1-c1c(Cl)cc(C(F)(F)F)cc1Cl (centres unmarked) [3-20, 1-(2,6-Dichloro-4-trifluoromethylphenyl)-3-cyano-5-N-(2-carboxyethyl)carbonyl-N-methylamino-4-trifluoromethylsulfinylpyrazole] | at least 90% | 
N#Cc1nn(-c2c(Cl)cc(C(F)(F)F)cc2Cl)c(NC(=O)CCN2CCCCC2)c1SC(F)(F)F [7-73, 1-(2,6-Dichloro-4-trifluoromethylphenyl)-3-cyano-5-(3-N-piperidinylpropionylamino)-4-trifluoromethylthiopyrazole] |  | at least 90%
